The values that follow come from article PMC12017769.

Results are given in words; binding and its absence hold for the method and conditions named. Binding seen in cells or lysates may run through a third protein. Some results given as binding are weak or reduced against the parent protein; the word gives no strength.

The experiment deals with T1, SF1 (branchpoint binding protein) (human (endogenous in 293A-TOA)), Q15637.
T1 chain: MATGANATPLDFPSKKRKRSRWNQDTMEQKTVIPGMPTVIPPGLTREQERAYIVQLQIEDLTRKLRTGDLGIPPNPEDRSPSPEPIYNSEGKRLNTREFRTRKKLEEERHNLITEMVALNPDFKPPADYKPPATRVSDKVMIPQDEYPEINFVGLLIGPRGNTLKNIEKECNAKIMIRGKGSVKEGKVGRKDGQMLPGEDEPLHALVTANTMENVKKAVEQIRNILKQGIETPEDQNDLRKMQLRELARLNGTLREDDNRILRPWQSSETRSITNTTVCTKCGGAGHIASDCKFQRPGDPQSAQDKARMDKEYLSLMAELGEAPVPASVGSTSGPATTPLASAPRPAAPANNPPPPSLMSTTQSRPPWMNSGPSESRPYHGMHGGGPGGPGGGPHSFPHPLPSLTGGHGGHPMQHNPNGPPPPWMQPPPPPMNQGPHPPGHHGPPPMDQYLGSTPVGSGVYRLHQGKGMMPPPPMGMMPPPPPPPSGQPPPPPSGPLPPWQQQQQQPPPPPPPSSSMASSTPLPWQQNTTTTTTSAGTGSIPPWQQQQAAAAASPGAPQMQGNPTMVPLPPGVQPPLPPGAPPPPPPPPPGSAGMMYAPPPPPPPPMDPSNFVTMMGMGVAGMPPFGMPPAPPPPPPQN
The experiment in a line: co-IP; SF1 immunoprecipitated with mouse anti-SF1 antibodies and protein A magnetic beads from lysate of 293A-TOA cells treated with DMSO, TG or OSMI-1; lysate treated with RQ1 DNase and RNase A; 100 mM NaCl, 2.5 mM MgCl2, 10 mM Tris-HCl pH 7.5, 0.5% IGEPAL CA-630; 2 hr at 4°C; blot probed with rabbit anti-SFSWAP. To be noted: remark: other sources report otherwise.

B1: SFSWAP (splicing factor, suppressor of white-apricot homolog), Q12872 1-951 (protein)
chain: MYGASGGRAKPERKSGAKEEAGPGGAGGGGSRVELLVFGYACKLFRDDERALAQEQGQHLIPWMGDHKILIDRYDGRGHLHDLSEYDAEYSTWNRDYQLSEEEARIEALCDEERYLALHTDLLEEEARQEEEYKRLSEALAEDGSYNAVGFTYGSDYYDPSEPTEEEEPSKQREKNEAENLEENEEPFVAPLGLSVPSDVELPPTAKMHAIIERTASFVCRQGAQFEIMLKAKQARNSQFDFLRFDHYLNPYYKFIQKAMKEGRYTVLAENKSDEKKKSGVSSDNEDDDDEEDGNYLHPSLFASKKCNRLEELMKPLKVVDPDHPLAALVRKAQADSSTPTPHNADGAPVQPSQVEYTADSTVAAMYYSYYMLPDGTYCLAPPPPGIDVTTYYSTLPAGVTVSNSPGVTTTAPPPPGTTPLPPPTTAETSSGATSTTTTTSALAPVAAIIPPPPDVQPVIDKLAEYVARNGLKFETSVRAKNDQRFEFLQPWHQYNAYYEFKKQFFLQKEGGDSMQAVSAPEEAPTDSAPEKPSDAGEDGAPEDAAEVGARAGSGGKKEASSSKTVPDGKLVKASFAPISFAIKAKENDLLPLEKNRVKLDDDSDDDEESKEGQESSSSAANTNPAVAPPCVVVEEKKPQLTQEELEAKQAKQKLEDRLAAAAREKLAQASKESKEKQLQAERKRKAALFLQTLKNPLPEAEAGKIEESPFSVEESSTTPCPLLTGGRPLPTLEVKPPDRPSSKSKDPPREEEKEKKKKKHKKRSRTRSRSPKYHSSSKSRSRSHSKAKHSLPSAYRTVRRSRSRSRSPRRRAHSPERRREERSVPTAYRVSRSPGASRKRTRSRSPHEKKKKRRSRSRTKSKARSQSVSPSKQAAPRPAAPAAHSAHSASVSPVESRGSSQERSRGVSQEKEAQISSAIVSSVQSKITQDLMAKVRAMLAASKNLQTSAS
As for B1, the binding result is “binds”.
